# According to the supplement of paper PMC10338343:
# ± gives the standard deviation. The entries are a selection whose mix differs from that of the whole data set. The uncertainty is large for many entries. This is one part of the list.
# What was measured:
# [1] = test system: MILI (PIWIL2) piRISC loaded with L1MC piRNA (26 nt); assay: pre-steady-state target cleavage rate (min^-1); higher = faster piRNA-guided slicing of the target; details: guide: L1MC piRNA 5'p-UAACUAAAUACUAUGCAAGCUGUAGG
# In short: (§1)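 The pre-steady-state cleavage rate was obtained by Cleave-'n-Seq with a burst-and-steady-state fit. A transcribed, DNA-blocked target RNA library (0.1 nM) was mixed with 1 nM active affinity-purified piRISC carrying one synthetic guide, with or without 500 nM GTSF1 partner protein, in HEPES–potassium acetate buffer at 33 °C for 0–8 or 0–960 min. Uncleaved targets were sequenced and normalised to depth and to weakly complementary targets, with three trials pooled and k3 capped at 0.0001 min^-1.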
# [2] = test system: MIWI (PIWIL1) piRISC loaded with L1MC piRNA (30 nt); assay: as above; details: guide: L1MC piRNA 5'p-UAACUAAAUACUAUGCAAGCUGUAGGUCCU
# In short: as §1
# [3] = test system: EfPiwi piRISC loaded with L1MC piRNA (26 nt); assay: pre-steady-state target cleavage rate (min^-1); guide: L1MC piRNA 5'p-UAACUAAAUACUAUGCAAGCUGUAGG; MIWI and MILI are mouse PIWI proteins and EfPiwi is from a freshwater sponge; tags in brackets are library labels; higher = faster piRNA-guided slicing of the target
# In short: as §1
# [4] = auxiliary factor: none (no GTSF1)
# [5] = auxiliary factor: 500 nM mouse GTSF1
# [6] = auxiliary factor: 500 nM Ephydatia muelleri Gtsf1
# [7] = auxiliary factor: none (no Gtsf1)
Sequence,"pre-steady-state target cleavage rate [1, 4]","pre-steady-state target cleavage rate [2, 5]","pre-steady-state target cleavage rate [2, 4]","pre-steady-state target cleavage rate [3, 6]","pre-steady-state target cleavage rate [3, 7]","pre-steady-state target cleavage rate [1, 5]"
UCCUGGAUGAGCUUGCUAAGUAUUUAGAAA,0.0007 ± 0.0077,0.0015 ± 0.0075,0.000479 ± 0.0051,0.000338 ± 0.011,0.000131 ± 0.029,–
UCCUGCUACAGCUUGCAAACUAUUUAGUUA,0.00237 ± 0.0034,0.363 ± 0.027,0.00719 ± 0.0031,0.00535 ± 0.002,0.000585 ± 0.012,–
UCCUGGAUGUCGUAGCAUAGUUUUUAGUUA,0.0024 ± 0.0037,0.00162 ± 0.0072,0.000741 ± 0.013,0.00029 ± 0.013,0.000332 ± 0.024,–
UCCUGGAUGUGCUUCGUUAGUAUUUAGAAA,–,–,0.000345 ± 0.018,0.000257 ± 0.011,0.000442 ± 0.018,–
UCCUCCUACAGCUUGCAUAGAAUUUUCAAA,–,–,0.000385 ± 0.0062,0.00178 ± 0.0023,< 0.0001,–
UCCUGGAUGUCCUUCGUUAGUAUUUAGUUA,–,–,0.000729 ± 0.011,0.000405 ± 0.0081,< 0.0001,–
UCCUGGAUCAGCUUGCAUUCAAUUUAGAAA,–,–,0.000624 ± 0.007,0.000741 ± 0.0051,0.000194 ± 0.025,–
UCCUCGAACAGCUUGCAUAGUAUUUUCAAA,–,–,0.00296 ± 0.0031,0.00321 ± 0.0022,0.000406 ± 0.012,–
UCCUGGAUGUCGAUGGCAUAGUAUUUAGUUA,–,–,0.00143 ± 0.0068,0.00329 ± 0.0037,0.000908 ± 0.0097,–
UCCUGGAUGUGCUUGCAUAGUAAUUAGAAA,0.000635 ± 0.01,0.00357 ± 0.004,0.00207 ± 0.0031,0.00219 ± 0.0033,0.000149 ± 0.051,–
UCCUGGUACAGCUUCCAAAGUAUUUAGUUA,–,–,0.00214 ± 0.0022,0.00178 ± 0.003,0.000592 ± 0.015,–
UCCUGGAACAGCUUGCAUAGCUAUUUAGUUA,0.00173 ± 0.004,0.0102 ± 0.0047,0.00136 ± 0.0044,0.00066 ± 0.0049,0.000328 ± 0.022,–
UCCUGGAUCAGCUUGCAUAGGUAUUUAGUUA,–,0.00271 ± 0.005,0.00128 ± 0.0077,0.00153 ± 0.004,0.000245 ± 0.033,0.00375 ± 0.0051
UCCUGGAUGUCGAAGCAUAGUUAAAUCAAA [g10:g16:cont:t1A],–,–,0.0005 ± 0.0086,0.000245 ± 0.013,< 0.0001,–
UCCUGGAUGUCCUUGCAAAGUAUUUAGUAA,–,–,0.00232 ± 0.0026,0.00159 ± 0.0042,0.000475 ± 0.012,–
UCCUGGAUGUCGCUGCAUAGUAUUUAGUUA,–,–,0.00177 ± 0.0043,0.00471 ± 0.0025,0.00089 ± 0.012,–
UCCUGGAUGUGGUUGCAUAGUAUUAAGUUA,–,–,0.00331 ± 0.004,0.00101 ± 0.0065,0.00162 ± 0.009,–
UCCUGGAUGAGCUUGCAUAGUAUUAUCUAA,–,–,0.00123 ± 0.0046,0.000843 ± 0.0034,0.000684 ± 0.01,–
UCCUGGAUCAGCUACCAUAGUAUUUAGUUA,–,–,0.00173 ± 0.0048,0.00516 ± 0.0032,0.000753 ± 0.0086,–
UCCUGGUACAGGAAGCAUAGUAUUUAGUUA,–,–,0.00172 ± 0.0029,0.00248 ± 0.0023,0.000383 ± 0.018,–
UCCUCCUACAGGAAGCAUAGUAUUUAGAAA,–,–,0.000328 ± 0.0072,0.00203 ± 0.0023,0.000378 ± 0.018,–
UCCUCCUACAGCUUGCAUAGAUUUUUCAAA,–,–,0.000516 ± 0.0098,0.00124 ± 0.0037,0.000191 ± 0.017,–
UCCUGGAACACGAUGCAUAGUAUUUAGUAA,–,–,0.00259 ± 0.004,0.00251 ± 0.0027,0.000196 ± 0.04,–
UCCUCCUACAGCUUGCAUAGUAAAUAGAAA,–,–,0.0011 ± 0.007,0.00187 ± 0.002,0.000194 ± 0.03,–
UCCUGGAUGAGGAUGCAUAGUAUUUAGUAA,–,–,0.00202 ± 0.0028,0.00177 ± 0.0025,0.000309 ± 0.029,–
UCCUGGAACAGCAACCAUAGUAUUUAGUAA,–,–,0.00118 ± 0.0068,0.00113 ± 0.0072,0.000227 ± 0.037,–
UCCUGCUACAGCAAGCAUAGUAUUUAGUAA,–,–,0.00118 ± 0.005,0.00213 ± 0.0025,0.000182 ± 0.018,–

Sequence,"pre-steady-state target cleavage rate [1, 4]","pre-steady-state target cleavage rate [2, 5]","pre-steady-state target cleavage rate [2, 4]","pre-steady-state target cleavage rate [3, 6]","pre-steady-state target cleavage rate [3, 7]","pre-steady-state target cleavage rate [1, 5]"
UCCUGGAUGAGCUUGCUAAGUAUUUAGUUA,–,–,0.00229 ± 0.0025,0.00188 ± 0.0037,0.000796 ± 0.0089,–
UCCUGGAACAGGAUGCAUAGUAUUUACAAA,–,–,0.000445 ± 0.013,0.00226 ± 0.0018,0.000184 ± 0.032,–
UCCUGGAUGUCCUUGCAUAAGUAUUUAGUUA,–,–,0.00107 ± 0.0063,0.00186 ± 0.0045,< 0.0001,–
UCCUGGAUGUCGAACCUUAGUAUUUAGAUA,–,–,0.000115 ± 0.018,0.000388 ± 0.013,0.000202 ± 0.027,–
UCCUGGAUGUCGAAGCAUAGUAUUUACUAA,–,–,0.000175 ± 0.017,0.000202 ± 0.023,< 0.0001,–
UCCUGGUACAGCUUGCAUAGAUUUUACAAA,0.00151 ± 0.0044,0.00227 ± 0.0058,0.00105 ± 0.0047,0.000829 ± 0.0044,0.000534 ± 0.014,–
UCCUGGUACAGCUUGCAUAGAAUUUUCAAA,–,–,0.000557 ± 0.0068,0.000658 ± 0.015,0.000114 ± 0.044,–
UCCUGGAUGUCGAUGCAUAGUAGUUAGUUA,–,–,0.00102 ± 0.0046,0.00338 ± 0.0034,0.000534 ± 0.017,–
UCCUGGAUGAGCUUGCAUCAGUAUUUAGUUA,–,–,0.000843 ± 0.0069,0.000392 ± 0.0092,< 0.0001,–
UCCUGGAUGUGCUUGCAUAGUAUUUGUUA,0.00113 ± 0.0059,0.00205 ± 0.0063,0.00167 ± 0.0048,0.0013 ± 0.0035,0.000467 ± 0.019,–
UCCUGGAUGAGCAACCAUAGUAUUUACAAA,0.000473 ± 0.015,0.00156 ± 0.0099,0.000713 ± 0.0099,0.000152 ± 0.042,0.0004 ± 0.018,–
UCCUGCUACAGCUUGCAUAGUAAUUUCAAA,–,–,0.000434 ± 0.012,0.00378 ± 0.0027,0.000695 ± 0.0094,–
UCCUGGUACAGCAAGCAUAGUAUUUAGAAA,–,–,0.000664 ± 0.0072,0.00185 ± 0.0021,0.000186 ± 0.015,–
UCCUGGAUGUCGAUGCAUAGUAUUUAGUUUA,–,–,0.00139 ± 0.0063,0.00642 ± 0.0029,0.00107 ± 0.0084,–
UCCUGGAUGUCCUUGCAAAGUUUUUAGUUA,–,–,0.00192 ± 0.0037,0.000263 ± 0.011,0.000177 ± 0.042,–
UCCUGGUACAGCUACGAUAGUAUUUAGUUA,–,–,0.00125 ± 0.0042,0.000512 ± 0.0078,0.00101 ± 0.0085,–
UCCUGGAUCACCAUGCAUAGUAUUUAGUUA,–,–,0.00191 ± 0.0031,0.013 ± 0.0061,0.000907 ± 0.011,–
UCCUGGAUCAGCUUGCAUAGAAUUUUCAAA,–,–,0.00158 ± 0.0037,0.00068 ± 0.0048,0.000241 ± 0.032,–
UCCUGGAUGAGGAUGCAUAGUAUUUAGUUA,–,–,0.00252 ± 0.0029,0.00336 ± 0.0024,0.0019 ± 0.0057,–
UCCUGCUACAGCUUCGAUAGUAUUUAGUAA,–,–,0.00162 ± 0.0039,0.00315 ± 0.0026,0.000628 ± 0.0087,–
UCCUGCUACAGCUUGCAUGAGUAUUUAGUUA,–,–,0.000811 ± 0.0093,0.00232 ± 0.0025,0.00032 ± 0.027,–
UCCUGGAUGUCGAAGCAAUGUAUUUAGUUA,–,–,0.00062 ± 0.0099,0.000732 ± 0.0078,0.000303 ± 0.019,–
UCCUGGUACAGCUUGGUAAGUAUUUAGUUA,–,–,0.00217 ± 0.0041,0.00282 ± 0.0054,0.00049 ± 0.03,–
UCCUGGAUGUCGAAGGAUAGUAUUAAGUUA,–,–,0.000224 ± 0.026,< 0.0001,< 0.0001,–
UCCUGGAACAGCUUGCAUACUAUUUACAAA,–,–,0.00233 ± 0.0039,0.0021 ± 0.0033,0.000302 ± 0.021,–
UCCUGGUACAGCUUGCAUAGUAAAUAGAAA,–,–,0.000552 ± 0.012,0.0022 ± 0.0033,0.000257 ± 0.028,–

# Single records, from the list above. Values in the order: pre-steady-state target cleavage rate [1, 4] | pre-steady-state target cleavage rate [2, 5] | pre-steady-state target cleavage rate [2, 4] | pre-steady-state target cleavage rate [3, 6] | pre-steady-state target cleavage rate [3, 7] | pre-steady-state target cleavage rate [1, 5]
# UCCUGGAUGUGCUUGCAUAGUAUUUGUUA is listed with 0.00113 ± 0.0059 | 0.00205 ± 0.0063 | 0.00167 ± 0.0048 | 0.0013 ± 0.0035 | 0.000467 ± 0.019 | –
# UCCUGGAUGAGCUUGCAUAGUAUUAUCUAA is listed with – | – | 0.00123 ± 0.0046 | 0.000843 ± 0.0034 | 0.000684 ± 0.01 | –
# UCCUGGAUGUCGUAGCAUAGUUUUUAGUUA is listed with 0.0024 ± 0.0037 | 0.00162 ± 0.0072 | 0.000741 ± 0.013 | 0.00029 ± 0.013 | 0.000332 ± 0.024 | –
